Data as given in article PMC12402400.
Results are given in words; binding and its absence hold for the method and conditions named. Binding seen in cells or lysates may run through a third protein. Some results given as binding are weak or reduced against the parent protein; the word gives no strength.

Chains of the proteins cited; added tags and fusions are not shown.
UniProt Q9WTU3: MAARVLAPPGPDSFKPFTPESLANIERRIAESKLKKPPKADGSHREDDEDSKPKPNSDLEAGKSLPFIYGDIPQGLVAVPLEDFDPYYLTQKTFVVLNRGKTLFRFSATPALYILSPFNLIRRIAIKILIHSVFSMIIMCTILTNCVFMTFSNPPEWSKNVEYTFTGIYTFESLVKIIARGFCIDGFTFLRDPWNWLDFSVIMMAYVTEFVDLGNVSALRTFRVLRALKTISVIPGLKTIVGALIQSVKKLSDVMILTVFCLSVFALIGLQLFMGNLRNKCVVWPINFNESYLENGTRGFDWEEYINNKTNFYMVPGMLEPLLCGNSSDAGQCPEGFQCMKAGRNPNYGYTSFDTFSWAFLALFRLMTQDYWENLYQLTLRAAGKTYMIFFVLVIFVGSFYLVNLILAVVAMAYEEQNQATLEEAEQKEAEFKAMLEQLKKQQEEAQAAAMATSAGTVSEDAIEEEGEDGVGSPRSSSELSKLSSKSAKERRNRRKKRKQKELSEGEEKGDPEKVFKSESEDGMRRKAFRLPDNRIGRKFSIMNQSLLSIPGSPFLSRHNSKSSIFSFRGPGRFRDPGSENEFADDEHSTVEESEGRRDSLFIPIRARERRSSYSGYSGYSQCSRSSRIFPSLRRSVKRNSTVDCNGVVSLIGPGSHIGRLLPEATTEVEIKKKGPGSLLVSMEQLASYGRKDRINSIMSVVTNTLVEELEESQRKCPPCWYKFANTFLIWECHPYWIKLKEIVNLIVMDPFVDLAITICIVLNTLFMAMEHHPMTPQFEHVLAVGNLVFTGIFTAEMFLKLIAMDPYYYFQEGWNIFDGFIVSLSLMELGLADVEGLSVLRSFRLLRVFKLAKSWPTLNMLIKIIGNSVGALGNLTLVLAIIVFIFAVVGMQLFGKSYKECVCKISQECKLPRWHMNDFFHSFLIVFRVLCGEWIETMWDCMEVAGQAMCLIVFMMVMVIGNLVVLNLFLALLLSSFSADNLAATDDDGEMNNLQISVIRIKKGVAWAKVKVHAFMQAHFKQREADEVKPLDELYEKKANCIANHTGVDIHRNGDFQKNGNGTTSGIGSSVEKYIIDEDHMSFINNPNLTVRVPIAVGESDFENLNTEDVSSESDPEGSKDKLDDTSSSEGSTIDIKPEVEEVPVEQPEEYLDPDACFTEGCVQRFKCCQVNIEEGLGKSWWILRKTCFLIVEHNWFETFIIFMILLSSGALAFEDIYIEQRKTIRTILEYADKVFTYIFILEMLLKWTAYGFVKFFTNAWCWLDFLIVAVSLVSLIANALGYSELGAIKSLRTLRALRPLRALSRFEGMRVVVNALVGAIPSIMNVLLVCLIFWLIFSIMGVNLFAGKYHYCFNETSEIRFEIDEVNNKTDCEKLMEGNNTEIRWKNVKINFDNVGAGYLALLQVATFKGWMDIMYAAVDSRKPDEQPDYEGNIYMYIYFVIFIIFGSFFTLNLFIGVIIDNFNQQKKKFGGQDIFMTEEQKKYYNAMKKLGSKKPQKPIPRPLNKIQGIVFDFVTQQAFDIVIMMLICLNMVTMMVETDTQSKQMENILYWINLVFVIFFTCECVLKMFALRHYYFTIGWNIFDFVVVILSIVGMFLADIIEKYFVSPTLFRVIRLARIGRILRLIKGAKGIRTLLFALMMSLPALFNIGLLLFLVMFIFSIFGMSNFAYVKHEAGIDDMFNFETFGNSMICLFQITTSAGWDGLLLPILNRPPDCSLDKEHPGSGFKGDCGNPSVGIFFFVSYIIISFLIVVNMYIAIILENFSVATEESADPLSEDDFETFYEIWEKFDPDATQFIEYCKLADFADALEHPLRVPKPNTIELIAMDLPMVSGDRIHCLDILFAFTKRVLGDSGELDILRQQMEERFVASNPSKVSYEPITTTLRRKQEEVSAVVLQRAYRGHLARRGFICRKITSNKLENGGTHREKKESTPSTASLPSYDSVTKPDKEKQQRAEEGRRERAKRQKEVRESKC

Target: Voltage-gated sodium channel Nav1.6 (UniProt Q9WTU3)
Assay: co-IP; from total protein lysates with anti-Nav1.6 or anti-Tn-R antibodies, then immunoblotting with the corresponding antibodies

B1: Tenascin-R (protein, UniProt Q8BYI9 32-1358)
chain: RLEVTTERAQRQTVEEEGGASSYNTSSKEQPMVFNHVYNINVPLESLCSSGLEASAEQDMSAEDDTLAEYIGQTSDHESQVTFTHKINLPKKACPCASSSQVLQELLSRIEMLEREVSLLRDQCNTNCCQESAATGQLDYVPHCSGHGNFSFESCGCICNEGWFGKNCSEPYCPLGCSSRGVCVDGQCICDSEYSGDDCSELRCPTDCSSRGLCVDGECVCEEPYTGEDCRELRCPGDCSGKGQCANGTCLCQEGYAGEDCSQRRCLNACSGRGHCQEGLCICEEGYQGPDCSAVAPPEDLRVAGISDRSIELEWDGPMAVTEYVISYQPTALGGLQLQQRVPGDWSGVTIMELEPGLTYNISVYAVISNILSLPITAKVATHLSTPQGLQFKTITETTVEVQWEPFSFSFDGWEISFIPKNNEGGVIAQLPSDVTSFNQTGLKPGEEYIVNVVALKEQARSPPTSASVSTVIDGPTQILVRDVSDTVAFVEWTPPRAKVDFILLKYGLVGGEGGKTTFRLQPPLSQYSVQALRPGSRYEVSISAVRGTNESEASSTQFTTEIDAPKNLRVGSRTATSLDLEWDNSEAEAQEYKVVYSTLAGEQYHEVLVPKGIGPTTKTTLTDLVPGTEYGVGISAVMNSKQSIPATMNARTELDSPRDLMVTASSETSISLIWTKASGPIDHYRITFTPSSGISSEVTVPRDRTSYTLTDLEPGAEYIISITAERGRQQSLESTVDAFTGFRPISHLHFSHVTSSSVNITWSDPSPPADRLILNYSPRDKEEDMLEVLLDATKRHAVLMGLQPATEYIVNLVAVHGTVTSEPIVGSITTGIDPPKNITISNVTKDSLTVSWSSPVAPFDYYRVSYRPTQVGRLDSSVVPNTVTEFAITRLYPATEYEISLNSVRGREESERICTLVHTAMDSPMDLIATNITPTEALLQWKAPMGEVENYVIVLTHFAIAGETILVDGVSEEFQLVDLLPSTHYTVTMYATSGPLMSGTIATNFSTLLDPPDNLTASEVTRQSALISWQPPRAAIENYVLTYKSTDGSRKELIVDAEDTWIRLEGLSENTDYTVLLQAAQEATRSSLTSTVFTTGGRVFSHPQDCAQHLMNGDTLSGVYTIFLNGELSHKLQVYCDMTTDGGGWIVFQRRQNGQTDFFRKWADYRVGFGNLEDEFWLGLDNIHRITAQGRYELRVDMRDGQEAVFAYYDKFAVEDSRSLYKIRIGSYNGTAGDSLSYHQGRPFSTEDRDNDVAVTNCAMSYKGAWWYKNCHRTNLNGKYGESRHSQGINWYHWKGHEFSIPFVEMKMRPYIHRLTAGRKRRALKF
Q: Which binding does the source give for B1 here?
A: binds
